Drawing on paper PMC5648754, “CryoEM structure of Saccharomyces cerevisiae U1 snRNP offers insight into alternative splicing” (Nature Communications, 2017), this text covers binding for 11 molecules.

Amino acid sequences for entries named in this document (tags omitted). A change or cut given only in a name is not applied to a line headed by its entry.
UniProt P32605: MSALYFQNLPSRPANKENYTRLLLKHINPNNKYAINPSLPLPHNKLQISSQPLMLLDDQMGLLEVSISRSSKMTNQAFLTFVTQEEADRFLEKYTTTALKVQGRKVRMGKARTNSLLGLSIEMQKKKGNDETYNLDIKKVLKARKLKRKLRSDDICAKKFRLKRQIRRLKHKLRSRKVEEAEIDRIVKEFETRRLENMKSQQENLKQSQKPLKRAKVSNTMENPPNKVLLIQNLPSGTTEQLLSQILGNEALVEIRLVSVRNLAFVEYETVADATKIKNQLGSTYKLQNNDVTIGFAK
UniProt Q08920: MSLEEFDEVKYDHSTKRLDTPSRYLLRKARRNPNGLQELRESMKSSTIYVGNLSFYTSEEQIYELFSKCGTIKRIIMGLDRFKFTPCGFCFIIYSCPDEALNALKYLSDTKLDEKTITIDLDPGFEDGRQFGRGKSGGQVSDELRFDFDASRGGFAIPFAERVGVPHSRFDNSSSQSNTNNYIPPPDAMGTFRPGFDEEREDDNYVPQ
UniProt Q00916: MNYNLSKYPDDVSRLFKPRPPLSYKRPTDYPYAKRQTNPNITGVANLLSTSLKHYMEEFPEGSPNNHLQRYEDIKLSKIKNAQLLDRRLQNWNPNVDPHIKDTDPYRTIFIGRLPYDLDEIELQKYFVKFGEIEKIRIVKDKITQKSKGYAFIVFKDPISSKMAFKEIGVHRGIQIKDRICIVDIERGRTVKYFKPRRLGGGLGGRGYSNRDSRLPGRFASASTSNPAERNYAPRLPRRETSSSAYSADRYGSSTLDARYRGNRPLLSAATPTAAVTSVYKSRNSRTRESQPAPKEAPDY
UniProt P34160: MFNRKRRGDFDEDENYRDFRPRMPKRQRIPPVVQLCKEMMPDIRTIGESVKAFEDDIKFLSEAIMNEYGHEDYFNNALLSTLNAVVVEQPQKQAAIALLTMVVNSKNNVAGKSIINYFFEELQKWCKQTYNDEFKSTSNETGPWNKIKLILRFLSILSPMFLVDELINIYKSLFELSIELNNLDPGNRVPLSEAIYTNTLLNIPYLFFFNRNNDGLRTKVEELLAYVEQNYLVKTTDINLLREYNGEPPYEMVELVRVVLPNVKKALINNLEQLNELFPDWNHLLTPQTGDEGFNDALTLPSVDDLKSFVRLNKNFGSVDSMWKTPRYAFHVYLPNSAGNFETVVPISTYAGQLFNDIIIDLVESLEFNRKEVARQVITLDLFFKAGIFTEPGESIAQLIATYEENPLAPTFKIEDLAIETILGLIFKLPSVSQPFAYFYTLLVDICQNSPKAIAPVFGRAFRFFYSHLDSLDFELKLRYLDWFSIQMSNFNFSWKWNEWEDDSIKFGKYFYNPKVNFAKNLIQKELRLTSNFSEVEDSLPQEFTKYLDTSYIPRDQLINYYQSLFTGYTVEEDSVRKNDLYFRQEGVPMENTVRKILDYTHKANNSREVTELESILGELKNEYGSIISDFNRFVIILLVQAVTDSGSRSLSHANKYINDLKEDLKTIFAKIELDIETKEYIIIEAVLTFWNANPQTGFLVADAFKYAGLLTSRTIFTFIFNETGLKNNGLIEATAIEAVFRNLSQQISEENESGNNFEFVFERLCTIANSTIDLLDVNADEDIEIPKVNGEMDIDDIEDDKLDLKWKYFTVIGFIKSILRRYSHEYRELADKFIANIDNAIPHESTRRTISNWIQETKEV
UniProt P39682: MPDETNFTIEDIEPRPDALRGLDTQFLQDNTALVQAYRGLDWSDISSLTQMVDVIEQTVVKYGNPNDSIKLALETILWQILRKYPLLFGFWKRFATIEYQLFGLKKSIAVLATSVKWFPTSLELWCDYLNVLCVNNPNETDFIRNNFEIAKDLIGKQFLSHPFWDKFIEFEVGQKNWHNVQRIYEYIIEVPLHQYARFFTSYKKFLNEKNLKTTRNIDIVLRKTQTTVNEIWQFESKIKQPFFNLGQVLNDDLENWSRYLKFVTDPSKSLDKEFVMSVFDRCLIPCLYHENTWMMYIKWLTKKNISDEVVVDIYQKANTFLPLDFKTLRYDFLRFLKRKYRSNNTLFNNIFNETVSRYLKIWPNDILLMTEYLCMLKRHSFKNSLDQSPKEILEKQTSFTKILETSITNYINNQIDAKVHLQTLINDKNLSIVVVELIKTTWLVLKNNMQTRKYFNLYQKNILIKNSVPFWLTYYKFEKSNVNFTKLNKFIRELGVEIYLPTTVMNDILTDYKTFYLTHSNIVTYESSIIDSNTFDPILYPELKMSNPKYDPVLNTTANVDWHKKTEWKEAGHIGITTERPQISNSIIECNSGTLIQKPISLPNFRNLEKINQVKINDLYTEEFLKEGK
UniProt P53207: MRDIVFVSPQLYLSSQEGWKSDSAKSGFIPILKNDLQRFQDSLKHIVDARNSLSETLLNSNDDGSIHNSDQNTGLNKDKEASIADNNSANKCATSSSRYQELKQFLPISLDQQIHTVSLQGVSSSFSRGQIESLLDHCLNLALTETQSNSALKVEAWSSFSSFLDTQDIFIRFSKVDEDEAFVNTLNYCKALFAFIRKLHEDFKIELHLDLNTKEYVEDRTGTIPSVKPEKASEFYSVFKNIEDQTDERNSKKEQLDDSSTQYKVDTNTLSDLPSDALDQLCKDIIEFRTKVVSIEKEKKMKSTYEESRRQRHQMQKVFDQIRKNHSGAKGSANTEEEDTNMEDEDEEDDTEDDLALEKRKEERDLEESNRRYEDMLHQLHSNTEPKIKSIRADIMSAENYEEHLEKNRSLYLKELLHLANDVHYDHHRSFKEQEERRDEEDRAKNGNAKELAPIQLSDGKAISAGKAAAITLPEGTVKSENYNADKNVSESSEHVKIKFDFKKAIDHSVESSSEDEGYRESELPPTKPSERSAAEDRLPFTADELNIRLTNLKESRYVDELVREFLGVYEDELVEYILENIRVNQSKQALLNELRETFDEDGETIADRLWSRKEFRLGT

No constants are given. Whether binding was seen depends on the method and setting. Binding seen in cells or lysates may run through a third protein. A yes stands for co-enrichment or nearness to the bait. Other partners may have been found.

The target of the assay is yeast U1A (Mud1), TAP-tagged (S. cerevisiae) (UniProt P32605). The experiment in a line: affinity purification with mass spectrometry; U1 snRNP purified from yeast through the TAP tag on U1A (IgG Sepharose, TEV, 10-30% glycerol gradient, calmodulin resin; 150 mM NaCl); components identified by SDS-PAGE and mass spectrometry.

With “yeast NCBP2, subunit of the nuclear cap-binding protein complex (from UniProt Q08920 1-208)”, the binding result is listed as “binds”.

On to “yeast U1-70K (from UniProt Q00916 1-300)”, for which the binding entry is given as “binds”.

For the molecule “yeast NCBP1, subunit of the nuclear cap-binding protein complex (from UniProt P34160 1-861)”, the binding result is on record as “binds”.

With yeast Prp39 (from UniProt P39682 1-629), the binding result was “binds”.

Take yeast Snu71 (from UniProt P53207 1-620): the binding entry is “binds”.

B1: yeast Nam8 (natural protein, S. cerevisiae, UniProt Q00539 1-523, looked up)
chain: MSYKQTTYYPSRGNLVRNDSSPYTNTISSETNNSSTSVLSLQGASNVSLGTTGNQLYMGDLDPTWDKNTVRQIWASLGEANINVRMMWNNTLNNGSRSSMGPKNNQGYCFVDFPSSTHAANALLKNGMLIPNFPNKKLKLNWATSSYSNSNNSLNNVKSGNNCSIFVGDLAPNVTESQLFELFINRYASTSHAKIVHDQVTGMSKGYGFVKFTNSDEQQLALSEMQGVFLNGRAIKVGPTSGQQQHVSGNNDYNRSSSSLNNENVDSRFLSKGQSFLSNGNNNMGFKRNHMSQFIYPVQQQPSLNHFTDPNNTTVFIGGLSSLVTEDELRAYFQPFGTIVYVKIPVGKCCGFVQYVDRLSAEAAIAGMQGFPIANSRVRLSWGRSAKQTALLQQAMLSNSLQVQQQQPGLQQPNYGYIPSSTCEAPVLPDNNVSSTMLPGCQILNYSNPYANANGLGSNNFSFYSNNNATNTQATSLLADTSSMDLSGTGGQQVIMQGSEAVVNSTNAMLNRLEQGSNGFMFA
notes: Nam8 of S. cerevisiae, 523 residues; inter-RRM linker 289-302 and RRM3 303-383 and C-terminal tail modelled; source: endogenous, S. cerevisiae; co-purified in U1 snRNP through the TAP tag on U1A
Consider B1, for which the binding entry is “binds”.

B2: yeast Prp40 (natural protein, S. cerevisiae, UniProt P33203 1-583, looked up)
chain: MSIWKEAKDASGRIYYYNTLTKKSTWEKPKELISQEELLLRENGWKAAKTADGKVYYYNPTTRETSWTIPAFEKKVEPIAEQKHDTVSHAQVNGNRIALTAGEKQEPGRTINEEESQYANNSKLLNVRRRTKEEAEKEFITMLKENQVDSTWSFSRIISELGTRDPRYWMVDDDPLWKKEMFEKYLSNRSADQLLKEHNETSKFKEAFQKMLQNNSHIKYYTRWPTAKRLIADEPIYKHSVVNEKTKRQTFQDYIDTLIDTQKESKKKLKTQALKELREYLNGIITTSSSETFITWQQLLNHYVFDKSKRYMANRHFKVLTHEDVLNEYLKIVNTIENDLQNKLNELRLRNYTRDRIARDNFKSLLREVPIKIKANTRWSDIYPHIKSDPRFLHMLGRNGSSCLDLFLDFVDEQRMYIFAQRSIAQQTLIDQNFEWNDADSDEITKQNIEKVLENDRKFDKVDKEDISLIVDGLIKQRNEKIQQKLQNERRILEQKKHYFWLLLQRTYTKTGKPKPSTWDLASKELGESLEYKALGDEDNIRRQIFEDFKPESSAPTAESATANLTLTASKKRHLTPAVELDY
notes: Prp40 of S. cerevisiae U1 snRNP; not modelled in the structure; source: endogenous, S. cerevisiae; co-purified in U1 snRNP through the TAP tag on U1A
As for B2, the binding entry was “binds”.

B3: yeast U1C (natural protein, S. cerevisiae, UniProt Q05900 1-231, looked up)
chain: MTRYYCEYCHSYLTHDTLSVRKSHLVGKNHLRITADYYRNKARDIINKHNHKRRHIGKRGRKERENSSQNETLKVTCLSNKEKRHIMHVKKMNQKELAQTSIDTLKLLYDGSPGYSKVFVDANRFDIGDLVKASKLPQRANEKSAHHSFKQTSRSRDETCESNPFPRLNNPKKLEPPKILSQWSNTIPKTSIFYSVDILQTTIKESKKRMHSDGIRKPSSANGYKRRRYGN
notes: U1C of S. cerevisiae U1 snRNP, 231 residues; NTD residues 1-48; residues 3-47 and 48-195 modelled; also called Yhc1; source: endogenous, S. cerevisiae; co-purified in U1 snRNP through the TAP tag on U1A
B3: the binding entry is “binds”.

B4: yeast Prp42 (natural protein, S. cerevisiae, UniProt Q03776 1-544, looked up)
chain: MDKYTALIHDENFSTLTLNVSRYPKSLAYWEKLLNYIVKASAPICKSTEPQLLKLIRCTYSSMLNEFPYLENYYIDFALLEYKLGNVSMSHKIFQRGLQAFNQRSLLLWTSYLKFCNNVISHQKQLFKKYETAEEYVGLHFFSGEFWDLYLEQISSRCTSSKKYWNVLRKILEIPLHSFSKFYALWLQRIDDIMDLKQLSQLTSKDELLKKLKIDINYSGRKGPYLQDAKKKLKKITKEMYMVVQYQVLEIYSIFESKIYINYYTSPETLVSSDEIETWIKYLDYTITLQTDSLTHLNFQRALLPLAHYDLVWIKYSKWLINSKNDLLGAKNVLLMGLKFSLKKTEIIKLLYSVICKLNEYVLLRNLLEKIESSYSDNVENVDDFEIFWDYLQFKTFCQNSLYSSRYSDSQSNGLLNKELFDKVWKRLSCKEKKSGQEILLNNLVQFYSKDTVEFVEKNIFQKIIEFGWEYYLQNGMFWNCYCRLIYFDTSRSYLDKRQYIVRKIWPQIDKKFAQSVLPSLTEFCESYFPEEMDTLEEMFTEEP
notes: Prp42 of S. cerevisiae, 544 residues; residues 2-540 modelled; source: endogenous, S. cerevisiae; co-purified in U1 snRNP through the TAP tag on U1A
B4: the binding result is recorded as “binds”.

B5: yeast Luc7 (natural protein, S. cerevisiae, UniProt Q07508 1-261, looked up)
chain: MSTMSTPAAEQRKLVEQLMGRDFSFRHNRYSHQKRDLGLHDPKICKSYLVGECPYDLFQGTKQSLGKCPQMHLTKHKIQYEREVKQGKTFPEFEREYLAILSRFVNECNGQISVALQNLKHTAEERMKIQQVTEELDVLDVRIGLMGQEIDSLIRADEVSMGMLQSVKLQELISKRKEVAKRVRNITENVGQSAQQKLQVCEVCGAYLSRLDTDRRLADHFLGKIHLGYVKMREDYDRLMKNNRTTNASKTATTLPGRRFV
notes: Luc7 of S. cerevisiae, 261 residues; first (pseudo) Zn-finger modelled; source: endogenous, S. cerevisiae; co-purified in U1 snRNP through the TAP tag on U1A
For the molecule B5, the binding entry is given as “binds”.

B6: yeast Snu56 (natural protein, S. cerevisiae, UniProt Q03782 1-492, looked up)
chain: MRPRRRGLAYHHTKPKGQLSQGHYPTTSNDGQRRKVGNSEAFQSFDIWKNLDRIRSTKKNAGQFIKGSLLILPMRTEDKQQFDECMDELHKYISKDILRCYPQKEQKDEGMLFYIVLKDFNILDSCFVLSVLLAFQKRLWMAPSEKSYFRVPKNINLTGSFYLPKNIETGRGHIITSYRREQPSSSIVEVGFNVVPDFQQFQVKACHVSKFMNELSNFFSQVEFGKCEANVINYFKREYNRTYSQISLALYELPLIGDGLFDIKSYISKTRPIIETSKAQMIKHISEMKAYNEISGLQGDQFPRQQRPLSNSPSSNSISSSQTIEAGATSYQTQPQRHAVNKPSNVLNSSNRHSGPKTFEDGRYSEGNKPGFMTQDEIKQHCIGTIKASMDAVKKKSSYQILKTYVRCPRQNYIDIVYQNLNDLRSKTNCNIVVLNLNNLHESQMWLESLNTTNYTIFAQAPHPSTIRVISIGGVGEYIVKALELILNILEH
notes: Snu56 of S. cerevisiae, 492 residues; N-terminal domain 47-254 and long helix 255-303 modelled; source: endogenous, S. cerevisiae; co-purified in U1 snRNP through the TAP tag on U1A
As to B6, the binding result is recorded as “binds”.
